In US20140038203A1, “METHODS FOR DETECTING OR PREDICTING KIDNEY DISEASE” (MUSC FOUNDATION FOR RESEARCH DEVELOPMENT, priority 2012, published 2014):

Test: RRT study: LC-MS/MS urinary proteomics, AKI after cardiac surgery, RRT vs No RRT
Set-up: species or system human
Conditions: patients who did vs did not require RRT/dialysis; for Up or Down: direction of urinary abundance; for Mean Fold Change: read with the Up or Down column

B1: Fructose-bisphosphate aldolase B (protein, UniProt P05062 2-364, looked up)
Fructose-bisphosphate …: AHRFPALTQEQKKELSEIAQSIVANGKGILAADESVGTMGNRLQRIKVENTEENRRQFREILFSVDSSINQSIGGVILFHETLYQKDSQGKLFRNILKEKGIVVGIKLDQGGAPLAGTNKETTIQGLDGLSERCAQYKKDGVDFGKWRAVLRIADQCPSSLAIQENANALARYASICQQNGLVPIVEPEVIPDGDHDLEHCQYVTEKVLAAVYKALNDHHVYLEGTLLKPNMVTAGHACTKKYTPEQVAMATVTALHRTVPAAVPGICFLSGGMSEEDATLNLNAINLCPLPKPWKLSFSYGRALQASALAAWGGKAANKEATQEAFMKRAMANCQAAKGQYVHTGSSGAASTQSLFTACYTY
**Q.** With B1 as the molecule, how does the “Up or Down” value read?
**A.** Up

**Q.** What about the “Mean Fold Change” value of the same molecule?
**A.** 9.539

B2: Thyroxine-binding globulin (protein, UniProt P05543 21-415, looked up)
Thyroxine-binding globulin: ASPEGKVTACHSSQPNATLYKMSSINADFAFNLYRRFTVETPDKNIFFSPVSISAALVMLSFGACCSTQTEIVETLGFNLTDTPMVEIQHGFQHLICSLNFPKKELELQIGNALFIGKHLKPLAKFLNDVKTLYETEVFSTDFSNISAAKQEINSHVEMQTKGKVVGLIQDLKPNTIMVLVNYIHFKAQWANPFDPSKTEDSSSFLIDKTTTVQVPMMHQMEQYYHLVDMELNCTVLQMDYSKNALALFVLPKEGQMESVEAAMSSKTLKKWNRLLQKGWVDLFVPKFSISATYDLGATLLKMGIQHAYSENADFSGLTEDNGLKLSNAAHKAVLHIGEKGTEAAAVPEVELSDQPENTFLHPIIQIDRSFMLLILERSTRSILFLGKVVNPTEA
**Q.** Which results are given for B2?
**A.** Up or Down: Up; Mean Fold Change: 32.78

B3: Phosphoglycerate kinase 1 (protein, UniProt P00558 2-417, looked up)
Phosphoglycerate kinase 1: SLSNKLTLDKLDVKGKRVVMRVDFNVPMKNNQITNNQRIKAAVPSIKFCLDNGAKSVVLMSHLGRPDGVPMPDKYSLEPVAVELKSLLGKDVLFLKDCVGPEVEKACANPAAGSVILLENLRFHVEEEGKGKDASGNKVKAEPAKIEAFRASLSKLGDVYVNDAFGTAHRAHSSMVGVNLPQKAGGFLMKKELNYFAKALESPERPFLAILGGAKVADKIQLINNMLDKVNEMIIGGGMAFTFLKVLNNMEIGTSLFDEEGAKIVKDLMSKAEKNGVKITLPVDFVTADKFDENAKTGQATVASGIPAGWMGLDCGPESSKKYAEAVTRAKQIVWNGPVGVFEWEAFARGTKALMDEVVKATSRGCITIIGGGDTATCCAKWNTEDKVSHVSTGGGASLELLEGKVLPGVDALSNI
**Q.** What does the source list for B3?
**A.** Up or Down: Up; Mean Fold Change: 6.053

B4: Thioredoxin (protein, UniProt P10599 2-105, looked up)
Thioredoxin: VKQIESKTAFQEALDAAGDKLVVVDFSATWCGPCKMIKPFFHSLSEKYSNVIFLEVDVDDCQDVASECEVKCMPTFQFFKKGQKVGEFSGANKEKLEATINELV
**Q.** For B4, which “Up or Down” value is on record?
**A.** Up

B5: Alpha-2-antiplasmin (protein, UniProt P08697 40-491, looked up)
Alpha-2-antiplasmin: NQEQVSPLTLLKLGNQEPGGQTALKSPPGVCSRDPTPEQTHRLARAMMAFTADLFSLVAQTSTCPNLILSPLSVALALSHLALGAQNHTLQRLQQVLHAGSGPCLPHLLSRLCQDLGPGAFRLAARMYLQKGFPIKEDFLEQSEQLFGAKPVSLTGKQEDDLANINQWVKEATEGKIQEFLSGLPEDTVLLLLNAIHFQGFWRNKFDPSLTQRDSFHLDEQFTVPVEMMQARTYPLRWFLLEQPEIQVAHFPFKNNMSFVVLVPTHFEWNVSQVLANLSWDTLHPPLVWERPTKVRLPKLYLKHQMDLVATLSQLGLQELFQAPDLRGISEQSLVVSGVQHQSTLELSEVGVEAAAATSIAMSRMSLSSFSVNRPFLFFIFEDTTGLPLFVGSVRNPNPSAPRELKEQQDSPGNKDFLQSLKGFPRGDKLFGPDLKLVPPMEEDYPQFGSPK
**Q.** For B5, which “Up or Down” value is on record?
**A.** Up

B6: Junctional adhesion molecule A (protein, UniProt Q9Y624 28-299, looked up)
Junctional adhesion molecule A: SVTVHSSEPEVRIPENNPVKLSCAYSGFSSPRVEWKFDQGDTTRLVCYNNKITASYEDRVTFLPTGITFKSVTREDTGTYTCMVSEEGGNSYGEVKVKLIVLVPPSKPTVNIPSSATIGNRAVLTCSEQDGSPPSEYTWFKDGIVMPTNPKSTRAFSNSSYVLNPTTGELVFDPLSASDTGEYSCEARNGYGTPMTSNAVRMEAVERNVGVIVAAVLVTLILLGILVFGIWFAYSRGHFDRTKKGTSSKKVIYSQPSARSEGEFKQTSSFLV
**Q.** Which results are given for B6?
**A.** Up or Down: Up; Mean Fold Change: 14.17

B7: Dermokine (protein, UniProt Q6E0U4 22-476, looked up)
Dermokine: GPLQSGEESTGTNIGEALGHGLGDALSEGVGKAIGKEAGGAAGSKVSEALGQGTREAVGTGVRQVPGFGVADALGNRVGEAAHALGNTGHEIGRQAEDVIRHGADAVRGSWQGVPGHNGAWETSGGHGIFGSQGGLGGQGQGNPGGLGTPWVHGYPGNSAGSFGMNPQGAPWGQGGNGGPPNFGTNTQGAVAQPGYGSVRASNQNEGCTNPPPSGSGGGSSNSGGGSGSQSGSSGSGSNGDNNNGSSSGGSSSGSSSGGSSGGSSGGSSGNSGGSRGDSGSESSWGSSTGSSSGNHGGSGGGNGHKPGCEKPGNEARGSGESGIQNSETSPGMFNFDTFWKNFKSKLGFINWDAINKNQVPPPSTRALLYFSRLWEDFKQNTPFLNWKAIIEGADASSLQKRAGRDDQNYNYNQHAYPTAYGGKYSVKTPAKGGVSPSSSASRVQPGLLQWVKFW
**Q.** For B7, which “Up or Down” value is on record?
**A.** Up

**Q.** What about the “Mean Fold Change” value of the same molecule?
**A.** 13.85

B8: Intercellular adhesion molecule 2 (protein, UniProt P13598 25-275, looked up)
Intercellular adhesion …: KVFEVHVRPKKLAVEPKGSLEVNCSTTCNQPEVGGLETSLDKILLDEQAQWKHYLVSNISHDTVLQCHFTCSGKQESMNSNVSVYQPPRQVILTLQPTLVAVGKSFTIECRVPTVEPLDSLTLFLFRGNETLHYETFGKAAPAPQEATATFNSTADREDGHRNFSCLAVLDLMSRGGNIFHKHSAPKMLEIYEPVSDSQMVIIVTVVSVLLSLFVTSVLLCFIFGQHLRQQRMGTYGVRAAWRRLPQAFRP
**Q.** Which “Up or Down” value does the source give for B8 here?
**A.** Up

B9: Protein NOV homolog (protein, UniProt P48745 32-357, looked up)
CCN family member 3: TQRCPPQCPGRCPATPPTCAPGVRAVLDGCSCCLVCARQRGESCSDLEPCDESSGLYCDRSADPSNQTGICTAVEGDNCVFDGVIYRSGEKFQPSCKFQCTCRDGQIGCVPRCQLDVLLPEPNCPAPRKVEVPGECCEKWICGPDEEDSLGGLTLAAYRPEATLGVEVSDSSVNCIEQTTEWTACSKSCGMGFSTRVTNRNRQCEMLKQTRLCMVRPCEQEPEQPTDKKGKKCLRTKKSLKAIHLQFKNCTSLHTYKPRFCGVCSDGRCCTPHNTKTIQAEFQCSPGQIVKKPVMVIGTCTCHTNCPKNNEAFLQELELKTTRGKM
**Q.** Which “Up or Down” value does the source give for B9 here?
**A.** Up

**Q.** And the “Mean Fold Change” value?
**A.** 12.93

B10: Connective tissue growth factor (protein, UniProt P29279 27-349, looked up)
CCN family member 2: QNCSGPCRCPDEPAPRCPAGVSLVLDGCGCCRVCAKQLGELCTERDPCDPHKGLFCHFGSPANRKIGVCTAKDGAPCIFGGTVYRSGESFQSSCKYQCTCLDGAVGCMPLCSMDVRLPSPDCPFPRRVKLPGKCCEEWVCDEPKDQTVVGPALAAYRLEDTFGPDPTMIRANCLVQTTEWSACSKTCGMGISTRVTNDNASCRLEKQSRLCMVRPCEADLEENIKKGKKCIRTPKISKPIKFELSGCTSMKTYRAKFCGVCTDGRCCTPHRTTTLPVEFKCPDGEVMKKNMMFIKTCACHYNCPGDNDIFESLYYRKMYGDMA
**Q.** For B10, which “Up or Down” value is on record?
**A.** Up

B11: Inter-alpha-trypsin inhibitor heavy chain H2 (protein, UniProt P19823 55-702, looked up)
Inter-alpha-trypsin inhibitor …: SLPGESEEMMEEVDQVTLYSYKVQSTITSRMATTMIQSKVVNNSPQPQNVVFDVQIPKGAFISNFSMTVDGKTFRSSIKEKTVGRALYAQARAKGKTAGLVRSSALDMENFRTEVNVLPGAKVQFELHYQEVKWRKLGSYEHRIYLQPGRLAKHLEVDVWVIEPQGLRFLHVPDTFEGHFDGVPVISKGQQKAHVSFKPTVAQQRICPNCRETAVDGELVVLYDVKREEKAGELEVFNGYFVHFFAPDNLDPIPKNILFVIDVSGSMWGVKMKQTVEAMKTILDDLRAEDHFSVIDFNQNIRTWRNDLISATKTQVADAKRYIEKIQPSGGTNINEALLRAIFILNEANNLGLLDPNSVSLIILVSDGDPTVGELKLSKIQKNVKENIQDNISLFSLGMGFDVDYDFLKRLSNENHGIAQRIYGNQDTSSQLKKFYNQVSTPLLRNVQFNYPHTSVTDVTQNNFHNYFGGSEIVVAGKFDPAKLDQIESVITATSANTQLVLETLAQMDDLQDFLSKDKHADPDFTRKLWAYLTINQLLAERSLAPTAAAKRRITRSILQMSLDHHIVTPLTSLVIENEAGDERMLADAPPQDPSCCSGALYYGSKVVPDSTPSWANPSPTPVISMLAQGSQVLESTPPPHVMRVEND
**Q.** With B11 as the molecule, how does the “Up or Down” value read?
**A.** Up

B12: Complement factor H-related protein 2 (protein, UniProt P36980 19-270, looked up)
Complement factor H-related …: EAMFCDFPKINHGILYDEEKYKPFSQVPTGEVFYYSCEYNFVSPSKSFWTRITCAEEGWSPTPKCLRLCFFPFVENGHSESSGQTHLEGDTVQIICNTGYRLQNNENNISCVERGWSTPPKCRSTISAEKCGPPPPIDNGDITSFLLSVYAPGSSVEYQCQNLYQLEGNNQITCRNGQWSEPPKCLDPCVISQEIMEKYNIKLKWTNQQKLYSRTGDIVEFVCKSGYHPTKSHSFRAMCQNGKLVYPSCEEK
**Q.** Which “Up or Down” value does the source give for B12 here?
**A.** Up

B13: Insulin-like growth factor-binding protein 4 (protein, UniProt P22692 22-258, looked up)
Insulin-like growth …: DEAIHCPPCSEEKLARCRPPVGCEELVREPGCGCCATCALGLGMPCGVYTPRCGSGLRCYPPRGVEKPLHTLMHGQGVCMELAEIEAIQESLQPSDKDEGDHPNNSFSPCSAHDRRCLQKHFAKIRDRSTSGGKMKVNGAPREDARPVPQGSCQSELHRALERLAASQSRTHEDLYIIPIPNCDRNGNFHPKQCHPALDGQRGKCWCVDRKTGVKLPGGLEPKGELDCHQLADSFRE
**Q.** With B13 as the molecule, how does the “Up or Down” value read?
**A.** Up

B14: Macrophage colony-stimulating factor 1 (protein, UniProt P09603 33-554, looked up)
Macrophage colony-stimulating …: EEVSEYCSHMIGSGHLQSLQRLIDSQMETSCQITFEFVDQEQLKDPVCYLKKAFLLVQDIMEDTMRFRDNTPNAIAIVQLQELSLRLKSCFTKDYEEHDKACVRTFYETPLQLLEKVKNVFNETKNLLDKDWNIFSKNCNNSFAECSSQDVVTKPDCNCLYPKAIPSSDPASVSPHQPLAPSMAPVAGLTWEDSEGTEGSSLLPGEQPLHTVDPGSAKQRPPRSTCQSFEPPETPVVKDSTIGGSPQPRPSVGAFNPGMEDILDSAMGTNWVPEEASGEASEIPVPQGTELSPSRPGGGSMQTEPARPSNFLSASSPLPASAKGQQPADVTGTALPRVGPVRPTGQDWNHTPQKTDHPSALLRDPPEPGSPRISSLRPQGLSNPSTLSAQPQLSRSHSSGSVLPLGELEGRRSTRDRRSPAEPEGGPASEGAARPLPRFNSVPLTDTGHERQSEGSFSPQLQESVFHLLVPSVILVLLAVGGLLFYRWRRRSHQEPQRADSPLEQPEGSPLTQDDRQVELPV
**Q.** With B14 as the molecule, how does the “Up or Down” value read?
**A.** Up

**Q.** What about the “Mean Fold Change” value of the same molecule?
**A.** 2.168
